Reference: article doi:10.1101/233213
Residue numbers refer to the chain shown, from its start. Results are given in words; binding and its absence hold for the method and conditions named. In cells and extracts the contact can be indirect. Some binding calls cover weakened binding; strength is not graded here. Where a sequence is shown, tags or fusion partners need not be part of it.

Legend:
[1] = target: T1, GlyT2 (neuronal glycine transporter 2), wild type (rat) (UniProt P58295); experiment: co-IP
T1 sequence: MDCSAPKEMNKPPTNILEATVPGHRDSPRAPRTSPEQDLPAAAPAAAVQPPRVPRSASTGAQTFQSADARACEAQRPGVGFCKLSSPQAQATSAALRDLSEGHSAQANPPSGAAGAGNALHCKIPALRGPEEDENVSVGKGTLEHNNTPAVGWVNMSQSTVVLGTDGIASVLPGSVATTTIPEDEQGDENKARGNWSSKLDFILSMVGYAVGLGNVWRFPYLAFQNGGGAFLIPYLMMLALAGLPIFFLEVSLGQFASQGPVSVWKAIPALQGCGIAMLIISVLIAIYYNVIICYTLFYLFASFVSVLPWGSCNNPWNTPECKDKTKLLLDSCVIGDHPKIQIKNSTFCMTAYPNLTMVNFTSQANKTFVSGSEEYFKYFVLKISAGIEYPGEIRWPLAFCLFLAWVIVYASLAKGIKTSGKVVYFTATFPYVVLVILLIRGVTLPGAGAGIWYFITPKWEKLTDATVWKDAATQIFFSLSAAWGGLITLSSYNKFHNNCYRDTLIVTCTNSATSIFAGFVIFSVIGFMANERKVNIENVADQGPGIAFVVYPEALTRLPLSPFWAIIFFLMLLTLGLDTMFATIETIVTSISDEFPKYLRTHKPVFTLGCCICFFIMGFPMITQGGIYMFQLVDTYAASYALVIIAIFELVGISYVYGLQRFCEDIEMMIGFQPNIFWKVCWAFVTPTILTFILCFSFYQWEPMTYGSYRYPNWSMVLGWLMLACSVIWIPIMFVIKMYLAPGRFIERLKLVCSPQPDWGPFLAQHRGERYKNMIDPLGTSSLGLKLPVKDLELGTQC

GlyT2-4KR (rat) = target: T2, GlyT2-4KR (rat) (UniProt P58295); experiment: co-IP
T2 sequence: T1 sequence with K751R, K773R, K787R, K791R

GlyT2-Δ8cter (rat) = target: T3, GlyT2-Δ8cter (rat) (UniProt P58295); experiment: co-IP
T3 sequence: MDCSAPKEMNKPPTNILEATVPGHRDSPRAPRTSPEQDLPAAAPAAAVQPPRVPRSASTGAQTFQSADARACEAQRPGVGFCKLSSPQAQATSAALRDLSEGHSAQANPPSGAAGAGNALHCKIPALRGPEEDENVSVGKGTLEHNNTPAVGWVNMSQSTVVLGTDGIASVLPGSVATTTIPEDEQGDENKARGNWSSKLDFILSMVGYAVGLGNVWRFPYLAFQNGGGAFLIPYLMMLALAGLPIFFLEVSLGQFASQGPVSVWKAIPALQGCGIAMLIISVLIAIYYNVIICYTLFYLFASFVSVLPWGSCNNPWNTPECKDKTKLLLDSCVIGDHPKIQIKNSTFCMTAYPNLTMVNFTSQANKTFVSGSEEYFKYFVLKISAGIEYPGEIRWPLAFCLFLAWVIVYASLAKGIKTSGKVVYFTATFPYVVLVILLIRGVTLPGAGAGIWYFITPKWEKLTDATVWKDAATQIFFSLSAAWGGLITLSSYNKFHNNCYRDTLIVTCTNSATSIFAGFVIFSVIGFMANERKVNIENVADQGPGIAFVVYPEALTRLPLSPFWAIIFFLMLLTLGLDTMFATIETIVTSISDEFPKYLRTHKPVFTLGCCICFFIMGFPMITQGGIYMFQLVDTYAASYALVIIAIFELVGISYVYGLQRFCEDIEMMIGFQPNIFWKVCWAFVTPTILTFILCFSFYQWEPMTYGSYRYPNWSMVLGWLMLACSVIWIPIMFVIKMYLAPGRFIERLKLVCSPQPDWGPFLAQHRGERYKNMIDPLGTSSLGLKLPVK

[2] = target: T4, GST fused to the C-terminus of GlyT2 (rat) (UniProt P58295); experiment: pull-down
T4 sequence: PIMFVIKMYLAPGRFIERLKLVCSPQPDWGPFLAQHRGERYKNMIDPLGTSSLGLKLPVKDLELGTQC

binding [1]: binds
binding (GlyT2-4KR (rat)): binds
binding (GlyT2-Δ8cter (rat)): binds
binding [2]: binds
B1: FLAG-tagged p80-LNX1 (Ligand of Numb protein X1, isoform p80) (enzyme, UniProt O70263 1-728)
chain: MNQPDLADDPDPSPEPLCIVCGQNHSPEENHFYTYTEDVDDDLICHICLQALLDPLDTPCGHTYCTLCLTNFLVEKDFCPVDRKPVVLQHCKKSSILVNKLLNKLLVTCPFTEHCTEVLQRCDLQHHFQTSCKGASHYGLTKDRKRRSQDGCPDGCASLMATTLSPEVSAAATISLMTDEPGLDNPAYVSSVEDGEPVANSSDSGRSNRTRARPFERSTMRSRSFKKINRALSALRRTKSGSVVANHVDQGRDNSENTTVPEVFPRLFHLIPDGEITSIKINRADPSESLSIRLVGGSETPLVHIIIQHIYRDGVIARDGRLLPGDIILKVNGMDISNVPHNYAVRLLRQPCQVLRLTVLREQKFRSRSNAHVPDSYGPRDDSFHVILNKSSPEEQLGIKLVRRVDEPGVFIFNVLNGGVADRHGQLEENDRVLAINGHDLRFGSPESAAHLIQASERRVHLVVSRQVRQSSPDIFQEAGWISNGQQSPGPGERNTASKPAATCHEKVVSVWKDPSESLGMTVGGGASHREWDLPIYVISVEPGGVISRDGRIKTGDILLNVNGIELTEVSRTEAVAILKSAPSSVVLKALEVKEQEAQEDCSPAALDSNHNVTPPGDWSPSWVMWLELPQYLCNCKDVILRRNTAGSLGFCIVGGYEEYSGNKPFFIKSIVEGTPAYNDGRIRCGDILLAVNGRSTSGMIHACLARMLKELKGRITLTIASWPGTFL
